Experimental data taken from patent US20250147051A1, “METHOD FOR DETECTING A TAU PROTEIN IN A SALIVA SAMPLE” (GTINVENT LIMITED, priority 2022, published 2025).
Substitutions are numbered along the chain they refer to. These are yes or no findings as the source states them, for the method shown. Some results given as binding are weak or reduced against the parent protein; the word gives no strength.

By UniProt entry, the sequences of proteins in these tests, tags left out. Where a name states a change or a piece, a line headed by the entry shows the natural chain unless it says otherwise.
UniProt P10636: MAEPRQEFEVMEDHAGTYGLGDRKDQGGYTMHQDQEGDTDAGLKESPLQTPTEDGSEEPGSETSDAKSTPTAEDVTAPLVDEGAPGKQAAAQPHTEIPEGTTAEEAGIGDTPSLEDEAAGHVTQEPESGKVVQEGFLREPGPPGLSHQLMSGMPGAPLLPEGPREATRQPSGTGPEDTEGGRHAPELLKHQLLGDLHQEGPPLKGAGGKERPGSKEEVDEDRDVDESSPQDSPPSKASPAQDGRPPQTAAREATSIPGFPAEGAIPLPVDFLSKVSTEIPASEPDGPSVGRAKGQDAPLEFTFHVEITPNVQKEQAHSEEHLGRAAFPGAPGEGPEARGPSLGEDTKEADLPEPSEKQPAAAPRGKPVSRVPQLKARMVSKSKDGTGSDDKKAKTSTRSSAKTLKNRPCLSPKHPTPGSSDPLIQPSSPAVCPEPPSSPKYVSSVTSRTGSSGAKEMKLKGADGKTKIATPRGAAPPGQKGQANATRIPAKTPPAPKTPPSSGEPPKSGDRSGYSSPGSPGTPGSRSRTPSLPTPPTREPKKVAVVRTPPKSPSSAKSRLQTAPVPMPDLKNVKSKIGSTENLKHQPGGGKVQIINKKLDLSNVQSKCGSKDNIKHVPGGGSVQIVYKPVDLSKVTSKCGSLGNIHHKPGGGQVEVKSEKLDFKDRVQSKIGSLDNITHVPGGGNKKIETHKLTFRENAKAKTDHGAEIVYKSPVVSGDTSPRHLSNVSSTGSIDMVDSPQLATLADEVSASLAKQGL
UniProt P10637: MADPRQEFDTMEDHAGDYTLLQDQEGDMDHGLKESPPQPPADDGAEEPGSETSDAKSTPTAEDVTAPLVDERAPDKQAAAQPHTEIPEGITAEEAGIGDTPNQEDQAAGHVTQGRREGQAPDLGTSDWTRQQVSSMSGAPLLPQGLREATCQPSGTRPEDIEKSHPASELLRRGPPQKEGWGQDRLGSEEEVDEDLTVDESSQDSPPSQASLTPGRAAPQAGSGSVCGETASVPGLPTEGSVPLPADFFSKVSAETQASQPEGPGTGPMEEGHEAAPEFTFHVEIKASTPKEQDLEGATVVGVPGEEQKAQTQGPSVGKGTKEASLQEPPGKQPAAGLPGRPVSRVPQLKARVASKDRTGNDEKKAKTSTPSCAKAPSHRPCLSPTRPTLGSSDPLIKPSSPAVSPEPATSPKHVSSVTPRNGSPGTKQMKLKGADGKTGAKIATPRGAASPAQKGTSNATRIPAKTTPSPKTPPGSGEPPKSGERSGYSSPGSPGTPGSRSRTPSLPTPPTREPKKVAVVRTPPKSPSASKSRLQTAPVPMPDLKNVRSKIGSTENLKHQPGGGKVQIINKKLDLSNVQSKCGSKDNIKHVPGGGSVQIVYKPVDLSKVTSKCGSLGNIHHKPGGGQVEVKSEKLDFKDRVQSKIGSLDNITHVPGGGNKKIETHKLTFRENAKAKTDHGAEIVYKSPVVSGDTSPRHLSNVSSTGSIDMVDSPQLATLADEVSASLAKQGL

Key:
[1] = biological target: full length human tau protein 2N4R (hT40) (human) (UniProt P10636); test: ELISA
[2] = biological target: tau fragment 1-319 (human) (UniProt P10636); test: ELISA
[3] = biological target: mouse tau (Isoform Tau-A) (mouse) (UniProt P10637); test: sandwich ELISA on brain homogenate (incl. wild type), S1D12 mAb capture
[4] = biological target: human tau 296-390 (Line 1 transgene fragment) (human) (UniProt P10636); test: sandwich ELISA on plasma, S1D12 mAb capture
[5] = biological target: mouse tau (Isoform Tau-A) (mouse) (UniProt P10637); test: sandwich ELISA on plasma, S1D12 mAb capture
[6] = biological target: human tau 296-390 (Line 1 transgene fragment) (human) (UniProt P10636); test: Western blot
[7] = biological target: mouse tau (Isoform Tau-A) (mouse) (UniProt P10637); test: Western blot
[8] = biological target: human tau 296-390 (Line 1 transgene fragment) (human) (UniProt P10636); test: Western blot of brain homogenates
[9] = biological target: mouse tau (Isoform Tau-A) (mouse) (UniProt P10637); test: Western blot of brain homogenates
[10] = biological target: human tau 296-390 (Line 1 transgene fragment) (human) (UniProt P10636); test: sandwich ELISA on plasma, S1G2 scAb detection
[11] = biological target: mouse tau (Isoform Tau-A) (mouse) (UniProt P10637); test: sandwich ELISA on plasma, S1G2 scAb detection
[12] = biological target: mouse tau (Isoform Tau-A) (mouse) (UniProt P10637); test: sandwich ELISA on brain homogenate (incl. wild type), S1G2 scAb detection

Measured: binding

B1: CA7 scAb (scFv, V domains shown)
VH: RVRLQGSGPSLVKPSQTLSLTCTVSGFSFDSYYVGWVRQAPGKALEWLGNIYSTGRAFYNPALKSRLSITRDTSKSQVSLSVSSVTIEDTALYYCVRGSYYHGGGNGMVDFFDYWSPGLLVTVSS
VL: QVVRTQPSSVSGSLGQRVSITCSGSSSNVGYGNYVGWFQQVPGSAPKLLIYAATSRASGVPDRFSGSRSGNTATLTIDSLQAEDEADYYCSSYQRGNTGVFGSGTRLTVLG
binds: [1] | [2]

B2: S1G2 scAb (scFv)
scFv: QVQLQESGPSLVKPSQTLSLTCTVSGFSLTSNSVGWVRQAPGKAPEWVAGIDTDGEEGYNPALNSRLSITRDTSKSQVSLSLSSVTSEDTAVYYCGRSYRADGLAYGYVQAIDYWGPGLLVTVSSEGKSSGASGESKVDDQAVVTQPSSVSGSLGQRVSITCSGSFIGISSVGWFQQLPGSGLRTIIVASDGRPSGVPDRFSMSKSGNTATLTISSLQAEDEADYFCGSSDRTPYTGVFGSGTRLTVLG
binds: [3] | [4] | [5]

B3: S1G2 mAb (antibody, mouse IgG2a, V domains shown)
VH: QVQLQESGPSLVKPSQTLSLTCTVSGFSLTSNSVGWVRQAPGKAPEWVAGIDTDGEEGYNPALNSRLSITRDTSKSQVSLSLSSVTSEDTAVYYCGRSYRADGLAYGYVQAIDYWGPGLLVTVSS
VL: QAVVTQPSSVSGSLGQRVSITCSGSFIGISSVGWFQQLPGSGLRTIIVASDGRPSGVPDRFSMSKSGNTATLTISSLQAEDEADYFCGSSDRTPYTGVFGSGTRLTVLG
binds: [6] | [7] | [8] | [9]

B4: S1E12 mAb (antibody, mouse IgG2a, V domains shown)
VH: B3 VH with T30G
VL: B3 VL with Q1R, A2V, V4R, P94Q
binds: [1]

B5: S1D12 mAb (antibody, mouse IgG2a, V domains shown)
VH: QVQLQESGPSLVKPSQTLSLTCTVSGFSLNNNAVGWVRQAPGKVPESLVGCSSDGTCYYNSALKSRLDITRDTSKNQISLSLSSVTTDDAAVYYCTRGHYSIYGYDYLGTIDYWGPGLLVTVSS
VL: QAVLTQPSSVSGSLGQRVSITCSGSSSNVGGGNSVGWYQHLPGSGLKTIIYDTNSRPSGVPDRFSGSRSGNTATLTINSLQAEDEGDYYCVTGDSTTHDDLVGSGTRLTVLG
binds: [7] | [10] | [11] | [9] | [12]
